{"source": "PubChem BioAssay AID1347076", "about": "(National Center for Advancing Translational Sciences (NCATS), 2019)", "note": "The whole screen tested about 400,000 compounds, of which about 13,000 (3.2%) were called active. Inconclusive results, whose numbers are uncertain, are shown with a selection of clear calls. Calls follow the shape of the dose curve; as a rule, active = well fitted cell-killing curve with a large enough effect; inconclusive = small, poorly fitted or top-dose-only effect, or effect the other way; inactive = flat fitted curve, though single readings scatter. Potencies of inconclusive entries are doubtful fits and often do not repeat. % is scaled to controls: 0 for no effect and ±100 for the full control effect; potency is read from the fitted curve at half-maximal effect."}
{"assay": "qHTS assay for MDR1-selective chemotherapeutics: Primary screen using the drug-selected MDR subline cells KB-V1; also: nearly all actives have a fitted effect of over 60% in size", "conditions": "KB-V1 MDR cells viability, CellTiter-Glo, 72 h; activity change, negative = cytotoxicity: at 46.1 µM (top of the series)", "summary_of_the_method": "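Following 72 h at 37 degrees C with compound, KB-V1 cell viability was read by CellTiter-Glo luminescence, medium being phenol-red-free DMEM plus 10% FBS; concentration-response parameters came from normalized, curve-fitted qHTS data.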"}
{"smiles": "CCN(CC(=O)Nc1ccc(NC(C)=O)cc1)C(=O)CCCOc1ccc(C(C)(C)C)cc1", "Potency": "inconclusive: 13 µM [cytotoxic, partial curve]"}
{"smiles": "Cc1ccccc1OCC(=O)Nc1ccc(OCc2cc(=O)n3ccsc3n2)cc1", "Potency": "inconclusive: 16.4 µM [rising, single point]"}
{"smiles": "O=C(N/N=C/c1cccc([N+](=O)[O-])c1)C1CC1c1ccccc1", "note": "(configuration not stated)", "activity change, negative = cytotoxicity": "inactive: -3.16%"}
{"smiles": "O=C(C1COc2ccccc2O1)N1CCN(S(=O)(=O)c2ccccc2)CC1", "note": "(configuration not stated)", "Potency": "inconclusive: 13 µM [cytotoxic, partial curve, poor fit]"}
{"smiles": "CSCCC(=O)N1CCN(CC(=O)N2CCCC2)CC1", "activity change, negative = cytotoxicity": "inactive: -1.28%"}
{"smiles": "FC(F)(F)c1cccc(N2CCN(Cc3nnc(-c4ccc5c(c4)OCO5)o3)CC2)c1", "activity change, negative = cytotoxicity": "inactive: -2.33%"}
{"smiles": "Cc1noc(C)c1C(=O)Nc1sc2c(c1C(N)=O)CCCCC2", "Potency": "active: 20.6 µM"}
{"smiles": "CN1CCN(Cc2nc(Cc3ccccc3)no2)CC1c1ccccc1", "note": "(configuration not stated)", "Potency": "inconclusive: 18.4 µM [cytotoxic, single point]"}
{"smiles": "O=C(Cc1ccccc1Cl)N1CCOCC1", "Potency": "inconclusive: 16.4 µM [rising, partial curve]"}
{"smiles": "CCc1nc2c(OCC3CCCCC3)cccn2c1N(C)C(=O)c1ccc(C)cc1", "Potency": "inconclusive: 23.1 µM [cytotoxic, single point]"}
{"smiles": "CCc1nnc(NC(=O)CSc2nnc(COc3ccc(C)cc3)n2-c2ccccc2)s1", "Potency": "inconclusive: 18.4 µM [cytotoxic, partial curve]"}
{"smiles": "CCOc1ccc(S(=O)(=O)c2c[nH]c3ccccc3c2=O)cc1", "Potency": "inconclusive: 6.51 µM [rising, full curve]"}
{"smiles": "CC1CC(C(=O)Nc2ccccc2)C(=O)O1", "note": "(configuration not stated)", "Potency": "inconclusive: 18.4 µM [rising, single point]"}
{"smiles": "COc1cccc(CNCCc2c[nH]c3ccccc23)c1OCc1ccccc1", "Potency": "inconclusive: 18.4 µM [cytotoxic, single point]"}
{"smiles": "CCc1cc(C(=O)N/N=C/c2ccc(OC)cc2)c2ccccc2n1", "Potency": "inconclusive: 16.4 µM [cytotoxic, partial curve, poor fit]"}
{"smiles": "Cc1ccc(-c2nnc(Sc3nc4ccccc4o3)c3ccccc23)cc1", "activity change, negative = cytotoxicity": "inactive: -12%"}
{"smiles": "CCOc1cc(N2CCOCC2)c(OCC)cc1NC(=O)Cc1ccc(OC)c(OC)c1", "Potency": "active: 5.8 µM"}
{"smiles": "CCCCNS(=O)(=O)CCNCc1ccccc1OC", "activity change, negative = cytotoxicity": "inactive: -3.58%"}
{"smiles": "CC(C)c1ccc(NC(=O)Cn2cccc2C2=NC(c3ccccc3)CO2)cc1", "note": "(configuration not stated)", "Potency": "inconclusive: 18.4 µM [cytotoxic, partial curve, poor fit]"}
{"smiles": "COc1ccc(-n2cnnc2SCC(=O)Nc2cc(C(C)(C)C)nn2-c2ccccc2)cc1", "activity change, negative = cytotoxicity": "inactive: 1.12%"}
{"smiles": "Cc1nn(C(C)C(=O)O)c(=O)c2ccccc12", "note": "(configuration not stated)", "Potency": "inconclusive: 13 µM [rising, single point]"}
{"smiles": "Cc1cc2c3c([nH]c2cc1S(=O)(=O)NCCCOC(C)C)CC(C)(C)CC3=O", "Potency": "inconclusive: 0.13 µM [cytotoxic, full curve, poor fit]"}
{"smiles": "O=C(Nc1cccc(-c2nc3ccccc3s2)c1)C1=COCCO1", "Potency": "inconclusive: 23.1 µM [cytotoxic, single point]"}
{"smiles": "COC(=O)c1cccc(Nc2c3c(nc4ccccc24)CCC3)c1", "Potency": "active: 18.4 µM"}
{"smiles": "CCn1ccnc1CN(C)Cc1c(C(=O)N2CCCCCCC2)nc2ccc(Cl)cn12", "Potency": "inconclusive: 4.11 µM [cytotoxic, full curve]"}
{"smiles": "CC(O)(c1ccc(F)c(F)c1)c1nc(-c2cc3ccccc3o2)cs1", "note": "(configuration not stated)", "activity change, negative = cytotoxicity": "inactive: 4.97%"}
{"smiles": "COc1cc(N)c(Cl)cc1C(=O)NC1CCN(Cc2ccccc2)CC1", "Potency": "inconclusive: 10.3 µM [cytotoxic, partial curve, poor fit]"}
{"smiles": "COc1ccc(Nc2nc(N3CCCC3)nc3ccccc23)c(OC)c1", "Potency": "inconclusive: 1.84 µM [cytotoxic, full curve, poor fit]"}
{"smiles": "O=C(c1ccc2oc(CCCc3ccccc3)nc2c1)N1CCCC1", "Potency": "inconclusive: 20.6 µM [cytotoxic, single point]"}
{"smiles": "Nc1nc2ccccc2n1CCOc1ccccc1Cl", "Potency": "inconclusive: 29.1 µM [cytotoxic, single point]"}
{"smiles": "OC(c1ccc(F)cc1)c1nc(-c2csc3ccccc23)cs1", "note": "(configuration not stated)", "Potency": "inconclusive: 2.91 µM [rising, partial curve]"}
{"smiles": "O=C1CCN(S(=O)(=O)c2ccccc2)C2CCCCC12", "note": "(configuration not stated)", "Potency": "inconclusive: 20.6 µM [cytotoxic, single point]"}
{"smiles": "CCC(C)NC(=O)C1CCN(C(=O)c2ccc(-n3ccc4ccccc43)s2)CC1", "note": "(configuration not stated)", "activity change, negative = cytotoxicity": "inactive: -15.3%"}
{"smiles": "COc1ccc(CNC(=O)CSc2nnnn2-c2ccccc2)cc1", "Potency": "inconclusive: 16.4 µM [cytotoxic, single point]"}
{"smiles": "Cc1cccc(N2CCN(C(=O)Cn3cnc4sc(C)c(S(=O)(=O)N5CCN(c6ncccn6)CC5)c4c3=O)CC2C)c1", "note": "(configuration not stated)", "Potency": "inconclusive: 23.1 µM [cytotoxic, single point]"}
{"smiles": "CCn1c(O)c(/C=C/C=C/C=Nc2ccccc2)sc1=S", "Potency": "inconclusive: 0.291 µM [cytotoxic, full curve, poor fit]"}
{"smiles": "FC(F)(F)c1cccc(-c2nnn3c2nc(NC2CCCCC2)c2ccccc23)c1", "activity change, negative = cytotoxicity": "inactive: -25%"}
{"smiles": "S=C1SCN(Cc2ccccc2)CN1Cc1ccco1", "activity change, negative = cytotoxicity": "inactive: 13.9%"}
{"smiles": "COc1ccc(C2=NO[C@@H]3C(=O)N(c4ccc5c(c4)OCCO5)C(=O)[C@H]23)cc1OC", "activity change, negative = cytotoxicity": "inactive: 17.2%"}
{"smiles": "O=c1c2cc(F)ccc2[nH]c(=S)n1Cc1ccc(F)cc1", "activity change, negative = cytotoxicity": "inactive: 1.12%"}
{"smiles": "Clc1ccc(N=c2ssnc2Cl)nc1", "Potency": "inconclusive: 29.1 µM [rising, single point]"}
{"smiles": "CCOC(=O)c1ccc(NC(=O)CSc2nccn2-c2ccc(OCC)cc2)cc1", "activity change, negative = cytotoxicity": "inactive: 12%"}
{"smiles": "O=C1CC(/C=C/c2cccnc2)=Nc2ccccc2N1", "Potency": "inconclusive: 16.4 µM [cytotoxic, single point]"}
{"smiles": "O=C1C(=O)c2ccccc2C(O)=C1CC=C(Cl)Cl", "Potency": "active: 3.66 µM"}
{"smiles": "COc1ccc(CNC(=O)COC(=O)c2ccc(OCC3CCCO3)cc2)cc1", "note": "(configuration not stated)", "Potency": "inconclusive: 29.1 µM [cytotoxic, single point]"}
{"smiles": "CCCCN(CC)Cc1c(O)ccc2c3c(c(=O)oc12)CCC3", "activity change, negative = cytotoxicity": "inactive: -6.62%"}
{"smiles": "Fc1ccccc1N1CCN(c2ncnc3nc[nH]c23)CC1", "activity change, negative = cytotoxicity": "inactive: -0.271%"}
